One data set relates to PHH spheroids. The experiment in a line: Chronic toxicity assay in PHH spheroids, viability by cellular ATP content. The format is cell-based, human. On the procedure:
Cryopreserved PHH (obtained from […], France or Bioreclamation IVT, USA) or fresh hepatocytes (obtained from patients subject to liver resections at Huddinge University Hospital, Stockholm, Sweden) were used for formation of spheroid cultures. Hepatocytes obtained from patient livers were isolated as previously described. Use of the liver specimens for this purpose was approved by the Ethics Committee at Karolinska Institutet ([…] Stockholm) and studies were carried out in accordance with the approved guidelines. Written informed consent was obtained from all donors of liver material. Cells were seeded into ultra-low attachment 96-well plates (Corning) at 1,500 viable cells per well and subsequently centrifuged at 100 × g for 2 min. […] Cell viability was assessed by determining the ATP content of single PHH spheroids with the CellTiter-Glo Luminescent Cell Viability Assay (Promega, Sweden). At the same time-points, cell culture medium was collected and albumin concentrations were determined by ELISA (Bethyl laboratories, USA). Absolute ATP and albumin values were normalized to spheroid volumes as determined from bright field imaging to compensate for compaction. […] Cell viability was assessed by determining the ATP content as indicated above. EC50 values were determined using GraphPad Prism (GraphPad Software, USA).

The conditions of data set [1]: human plasma Cmax; ref 21 (amiodarone), 22 (bosentan), 23 (diclofenac), 24 (fialuridine), 25 (tolcapone); read-out: In vivo Cmax; cited from earlier work.

One may read the Cmax as the highest concentration seen after dosing. As for `CCCCc1oc2ccccc2c1C(=O)c1cc(I)c(OCCN(CC)CC)c(I)c1` [Amiodarone, amiodarone], the “Fold changes in EC50 vs. 48 h (8 d)” value with PHH spheroids (8 d vs 48 h exposure) was found to be 15.4 fold. Also, the “Fold changes in EC50 vs. 48 h (28 d)” value with PHH spheroids (28 d vs 48 h exposure) amounted to 62.5 fold. For the same molecule, the Cmax in data set [1] is 800 nM.

Source of the values: publication PMC4855186, “Characterization of primary human hepatocyte spheroids as a model system for drug-induced liver injury, liver function and disease” (Scientific Reports, 2016).
